Three substances from paper PMC10182982 can be followed below.

Sequences of proteins named here, by UniProt entry; tags and fusion partners are left off.
UniProt Q16877: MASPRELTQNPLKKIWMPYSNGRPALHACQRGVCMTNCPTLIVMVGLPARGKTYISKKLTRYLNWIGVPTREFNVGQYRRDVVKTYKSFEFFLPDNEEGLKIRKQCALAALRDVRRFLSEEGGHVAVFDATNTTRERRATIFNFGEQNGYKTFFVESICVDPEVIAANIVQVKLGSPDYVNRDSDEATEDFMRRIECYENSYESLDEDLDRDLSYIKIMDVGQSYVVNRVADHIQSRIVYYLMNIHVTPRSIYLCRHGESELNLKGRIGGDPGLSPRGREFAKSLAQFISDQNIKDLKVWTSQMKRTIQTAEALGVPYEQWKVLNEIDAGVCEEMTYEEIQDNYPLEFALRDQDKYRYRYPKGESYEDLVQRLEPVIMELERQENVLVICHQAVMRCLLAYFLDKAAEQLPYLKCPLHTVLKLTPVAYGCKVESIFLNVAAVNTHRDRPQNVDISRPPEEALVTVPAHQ

The target in test [1] is T1, F-box/LRR-repeat protein 7 (FBXL7), endogenous (human (endogenous in 293T)) (UniProt Q9UJT9).
T1 sequence: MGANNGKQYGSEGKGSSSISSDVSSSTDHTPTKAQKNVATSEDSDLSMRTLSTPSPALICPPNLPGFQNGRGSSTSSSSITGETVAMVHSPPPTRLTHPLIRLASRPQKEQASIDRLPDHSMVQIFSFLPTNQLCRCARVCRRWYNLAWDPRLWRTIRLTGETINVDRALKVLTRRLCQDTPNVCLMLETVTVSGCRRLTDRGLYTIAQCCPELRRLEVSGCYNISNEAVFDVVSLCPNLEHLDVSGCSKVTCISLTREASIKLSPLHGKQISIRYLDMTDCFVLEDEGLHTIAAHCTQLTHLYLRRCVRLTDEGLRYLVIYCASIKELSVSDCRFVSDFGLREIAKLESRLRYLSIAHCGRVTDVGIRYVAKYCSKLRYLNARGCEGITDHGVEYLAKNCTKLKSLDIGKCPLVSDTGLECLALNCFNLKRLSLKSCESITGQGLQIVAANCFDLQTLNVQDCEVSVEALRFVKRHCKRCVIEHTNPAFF
The test can be described thus: co-IP; endogenous proteins in 293T lysate (EBC buffer: 50 mM Tris pH 7.5, 120 mM NaCl, 0.5% NP-40), overnight 4 °C, Western blot; precipitating antibody of this panel not told (anti-PFKFB4 is listed in the methods). On the technique in general: Immunoblotting shows a protein as a band on a membrane.

For test [2], the target named is T2, GST-FBXL7 (UniProt Q9UJT9).
T2 sequence: T1 sequence
The test can be described thus: pull-down; purified GST or GST-FBXL7 on glutathione-Sepharose beads, incubated with 1 µg purified His-PFKFB4 at 4 °C; Western blot with anti-GST and anti-His; both purified.

Test [3] addresses T3, HA-labeled FBXL7 (UniProt Q9UJT9).
T3 sequence: T1 sequence
The test can be described thus: co-IP; 293T cells with HA-FBXL7 and Myc-PFKFB4; immunoprecipitation with HA or Myc antibody, EBC buffer lysate, overnight 4 °C, Western blot.

No constants are given. Whether binding was seen depends on the method and setting. For part of these data: Binding seen in cells or lysates may run through a third protein. Some entries that bind do so weakly or less than the wild type. For part of these data: Tags and fused reporters may be left off the sequences shown.

For the substance “6-phosphofructo-2-kinase/fructose-2,6-biphosphatase 4 (PFKFB4), endogenous (from UniProt Q16877 1-469)”, the binding entry in test [1] is “binds”. In the case of His-PFKFB4 (from UniProt Q16877 1-469), the binding result in test [2] is recorded as “binds”. In the case of “Myc-labeled PFKFB4 (from UniProt Q16877 1-469)”, in test [3], the binding entry is “binds”.
